Results from the supplement of paper PMC10849652.
This is one part of the list.

Protein sequences, listed by entry. Tags and fused reporters are not part of them. Lines headed by an entry give the natural chain unless they say otherwise; changes in a name come on top.
UniProt Q9H1A4, whole entry, looked up: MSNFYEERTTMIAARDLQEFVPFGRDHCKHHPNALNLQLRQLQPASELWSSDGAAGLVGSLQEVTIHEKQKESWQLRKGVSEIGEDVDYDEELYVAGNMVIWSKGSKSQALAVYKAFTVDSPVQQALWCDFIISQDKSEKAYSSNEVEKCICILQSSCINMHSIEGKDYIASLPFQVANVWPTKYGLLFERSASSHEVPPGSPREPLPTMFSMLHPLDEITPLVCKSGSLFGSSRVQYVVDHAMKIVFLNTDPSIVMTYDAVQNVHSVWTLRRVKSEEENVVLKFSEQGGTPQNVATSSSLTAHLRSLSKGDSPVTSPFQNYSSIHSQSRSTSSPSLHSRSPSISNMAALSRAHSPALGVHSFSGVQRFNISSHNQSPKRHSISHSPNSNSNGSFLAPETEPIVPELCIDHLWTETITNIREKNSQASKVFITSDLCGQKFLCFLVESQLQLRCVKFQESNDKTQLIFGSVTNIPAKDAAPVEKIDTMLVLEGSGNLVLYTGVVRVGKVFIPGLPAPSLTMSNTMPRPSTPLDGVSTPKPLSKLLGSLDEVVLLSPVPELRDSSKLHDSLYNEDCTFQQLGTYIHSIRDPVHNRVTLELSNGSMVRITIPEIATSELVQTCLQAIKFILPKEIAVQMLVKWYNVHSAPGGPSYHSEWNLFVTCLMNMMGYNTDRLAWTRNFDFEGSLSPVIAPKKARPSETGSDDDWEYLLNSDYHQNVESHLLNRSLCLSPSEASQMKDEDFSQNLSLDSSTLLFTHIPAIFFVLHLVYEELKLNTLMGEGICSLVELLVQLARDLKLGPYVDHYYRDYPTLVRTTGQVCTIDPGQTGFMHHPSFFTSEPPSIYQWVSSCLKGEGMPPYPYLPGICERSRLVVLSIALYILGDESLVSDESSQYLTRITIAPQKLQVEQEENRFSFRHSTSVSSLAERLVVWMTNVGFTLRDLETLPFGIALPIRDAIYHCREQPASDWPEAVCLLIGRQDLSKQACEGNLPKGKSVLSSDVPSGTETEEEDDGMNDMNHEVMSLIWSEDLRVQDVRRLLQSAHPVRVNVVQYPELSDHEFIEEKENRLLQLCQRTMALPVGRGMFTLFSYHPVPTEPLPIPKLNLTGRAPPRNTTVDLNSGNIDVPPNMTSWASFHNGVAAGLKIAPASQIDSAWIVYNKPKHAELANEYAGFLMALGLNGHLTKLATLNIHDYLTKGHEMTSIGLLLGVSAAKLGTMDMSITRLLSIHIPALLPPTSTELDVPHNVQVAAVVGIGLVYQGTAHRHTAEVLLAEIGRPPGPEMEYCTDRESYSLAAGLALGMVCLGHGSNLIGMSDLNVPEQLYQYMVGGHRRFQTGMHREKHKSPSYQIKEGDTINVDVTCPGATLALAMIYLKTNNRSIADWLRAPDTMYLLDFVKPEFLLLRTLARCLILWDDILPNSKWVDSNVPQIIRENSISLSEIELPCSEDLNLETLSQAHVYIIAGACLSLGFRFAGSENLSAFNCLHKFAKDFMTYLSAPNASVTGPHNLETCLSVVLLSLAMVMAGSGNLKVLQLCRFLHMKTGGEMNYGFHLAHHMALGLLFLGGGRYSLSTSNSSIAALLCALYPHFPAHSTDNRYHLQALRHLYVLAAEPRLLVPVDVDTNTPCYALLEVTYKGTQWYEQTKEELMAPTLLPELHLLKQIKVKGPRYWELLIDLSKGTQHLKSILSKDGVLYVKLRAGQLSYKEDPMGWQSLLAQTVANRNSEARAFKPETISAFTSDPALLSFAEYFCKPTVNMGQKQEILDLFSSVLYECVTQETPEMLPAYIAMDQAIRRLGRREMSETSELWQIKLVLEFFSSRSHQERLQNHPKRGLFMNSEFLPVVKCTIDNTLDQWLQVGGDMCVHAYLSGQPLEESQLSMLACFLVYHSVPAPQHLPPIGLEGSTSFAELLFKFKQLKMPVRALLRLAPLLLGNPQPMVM
UniProt Q92688: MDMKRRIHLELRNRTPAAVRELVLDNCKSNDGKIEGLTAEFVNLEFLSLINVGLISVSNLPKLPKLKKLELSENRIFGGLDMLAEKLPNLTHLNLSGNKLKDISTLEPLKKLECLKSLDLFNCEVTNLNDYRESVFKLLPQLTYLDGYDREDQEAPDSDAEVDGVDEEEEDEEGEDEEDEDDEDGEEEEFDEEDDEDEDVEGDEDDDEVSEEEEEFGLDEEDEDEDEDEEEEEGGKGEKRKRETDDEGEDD
UniProt P16157: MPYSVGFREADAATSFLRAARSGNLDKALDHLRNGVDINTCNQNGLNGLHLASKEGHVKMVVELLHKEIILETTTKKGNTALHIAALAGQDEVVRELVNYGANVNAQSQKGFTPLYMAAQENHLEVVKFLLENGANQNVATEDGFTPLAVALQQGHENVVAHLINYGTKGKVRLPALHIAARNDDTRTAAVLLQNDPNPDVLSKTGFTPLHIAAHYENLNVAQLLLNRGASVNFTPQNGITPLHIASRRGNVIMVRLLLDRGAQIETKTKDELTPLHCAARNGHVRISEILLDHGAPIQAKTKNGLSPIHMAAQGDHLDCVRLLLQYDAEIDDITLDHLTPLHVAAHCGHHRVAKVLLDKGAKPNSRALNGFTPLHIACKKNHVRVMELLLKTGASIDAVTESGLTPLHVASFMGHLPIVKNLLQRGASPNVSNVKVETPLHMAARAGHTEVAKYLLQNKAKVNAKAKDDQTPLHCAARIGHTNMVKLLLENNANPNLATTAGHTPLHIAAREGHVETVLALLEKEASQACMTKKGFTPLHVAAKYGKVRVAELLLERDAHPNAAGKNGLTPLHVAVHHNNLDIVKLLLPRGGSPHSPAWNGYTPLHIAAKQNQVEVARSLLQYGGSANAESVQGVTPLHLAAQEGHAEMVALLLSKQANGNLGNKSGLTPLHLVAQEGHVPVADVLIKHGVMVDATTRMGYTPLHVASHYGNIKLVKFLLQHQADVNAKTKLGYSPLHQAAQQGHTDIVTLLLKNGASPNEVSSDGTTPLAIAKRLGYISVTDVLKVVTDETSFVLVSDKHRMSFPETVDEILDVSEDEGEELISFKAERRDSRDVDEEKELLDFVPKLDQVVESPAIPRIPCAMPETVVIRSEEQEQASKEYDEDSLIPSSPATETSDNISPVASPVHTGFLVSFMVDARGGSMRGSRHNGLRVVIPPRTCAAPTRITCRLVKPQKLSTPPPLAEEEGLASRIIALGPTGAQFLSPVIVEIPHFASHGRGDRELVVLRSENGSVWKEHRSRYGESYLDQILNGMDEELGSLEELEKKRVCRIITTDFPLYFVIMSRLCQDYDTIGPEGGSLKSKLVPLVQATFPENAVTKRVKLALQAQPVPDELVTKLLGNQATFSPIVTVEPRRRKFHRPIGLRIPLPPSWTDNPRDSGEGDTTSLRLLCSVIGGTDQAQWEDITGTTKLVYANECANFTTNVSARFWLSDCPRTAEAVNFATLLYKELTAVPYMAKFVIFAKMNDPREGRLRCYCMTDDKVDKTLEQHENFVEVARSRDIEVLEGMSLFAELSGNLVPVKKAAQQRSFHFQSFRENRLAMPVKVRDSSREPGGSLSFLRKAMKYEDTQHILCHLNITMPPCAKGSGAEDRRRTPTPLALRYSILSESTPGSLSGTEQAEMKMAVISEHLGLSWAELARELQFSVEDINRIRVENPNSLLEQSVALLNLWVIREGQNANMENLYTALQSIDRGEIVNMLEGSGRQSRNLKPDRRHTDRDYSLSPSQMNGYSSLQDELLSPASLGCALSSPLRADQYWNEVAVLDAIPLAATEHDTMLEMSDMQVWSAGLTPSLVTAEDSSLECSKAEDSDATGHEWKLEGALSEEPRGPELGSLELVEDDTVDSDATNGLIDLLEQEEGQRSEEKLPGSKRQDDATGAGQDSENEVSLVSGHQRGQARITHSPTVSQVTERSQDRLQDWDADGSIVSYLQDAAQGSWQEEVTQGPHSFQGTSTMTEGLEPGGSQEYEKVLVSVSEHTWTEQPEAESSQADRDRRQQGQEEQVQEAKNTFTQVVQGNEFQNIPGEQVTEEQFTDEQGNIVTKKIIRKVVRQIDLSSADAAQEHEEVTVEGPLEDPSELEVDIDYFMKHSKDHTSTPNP
UniProt P08758: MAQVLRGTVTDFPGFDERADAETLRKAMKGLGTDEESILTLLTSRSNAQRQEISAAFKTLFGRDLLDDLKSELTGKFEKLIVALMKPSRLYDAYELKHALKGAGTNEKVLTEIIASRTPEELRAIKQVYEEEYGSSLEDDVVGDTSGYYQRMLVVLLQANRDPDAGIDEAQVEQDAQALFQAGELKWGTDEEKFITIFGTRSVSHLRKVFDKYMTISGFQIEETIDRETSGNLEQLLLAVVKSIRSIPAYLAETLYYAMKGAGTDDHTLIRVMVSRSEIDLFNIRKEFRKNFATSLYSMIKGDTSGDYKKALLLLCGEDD
UniProt Q9BTT0: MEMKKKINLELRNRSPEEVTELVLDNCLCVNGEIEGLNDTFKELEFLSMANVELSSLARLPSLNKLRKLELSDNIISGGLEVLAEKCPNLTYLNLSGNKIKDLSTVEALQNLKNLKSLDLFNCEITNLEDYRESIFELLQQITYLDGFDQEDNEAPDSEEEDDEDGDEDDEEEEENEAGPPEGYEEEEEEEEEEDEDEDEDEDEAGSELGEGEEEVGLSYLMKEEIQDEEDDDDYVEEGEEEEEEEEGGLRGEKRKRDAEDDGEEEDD
UniProt Q96PC3: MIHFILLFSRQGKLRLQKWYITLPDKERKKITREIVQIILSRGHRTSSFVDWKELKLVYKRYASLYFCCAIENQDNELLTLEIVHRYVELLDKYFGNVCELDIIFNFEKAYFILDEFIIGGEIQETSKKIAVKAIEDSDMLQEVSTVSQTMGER
UniProt Q9NP73: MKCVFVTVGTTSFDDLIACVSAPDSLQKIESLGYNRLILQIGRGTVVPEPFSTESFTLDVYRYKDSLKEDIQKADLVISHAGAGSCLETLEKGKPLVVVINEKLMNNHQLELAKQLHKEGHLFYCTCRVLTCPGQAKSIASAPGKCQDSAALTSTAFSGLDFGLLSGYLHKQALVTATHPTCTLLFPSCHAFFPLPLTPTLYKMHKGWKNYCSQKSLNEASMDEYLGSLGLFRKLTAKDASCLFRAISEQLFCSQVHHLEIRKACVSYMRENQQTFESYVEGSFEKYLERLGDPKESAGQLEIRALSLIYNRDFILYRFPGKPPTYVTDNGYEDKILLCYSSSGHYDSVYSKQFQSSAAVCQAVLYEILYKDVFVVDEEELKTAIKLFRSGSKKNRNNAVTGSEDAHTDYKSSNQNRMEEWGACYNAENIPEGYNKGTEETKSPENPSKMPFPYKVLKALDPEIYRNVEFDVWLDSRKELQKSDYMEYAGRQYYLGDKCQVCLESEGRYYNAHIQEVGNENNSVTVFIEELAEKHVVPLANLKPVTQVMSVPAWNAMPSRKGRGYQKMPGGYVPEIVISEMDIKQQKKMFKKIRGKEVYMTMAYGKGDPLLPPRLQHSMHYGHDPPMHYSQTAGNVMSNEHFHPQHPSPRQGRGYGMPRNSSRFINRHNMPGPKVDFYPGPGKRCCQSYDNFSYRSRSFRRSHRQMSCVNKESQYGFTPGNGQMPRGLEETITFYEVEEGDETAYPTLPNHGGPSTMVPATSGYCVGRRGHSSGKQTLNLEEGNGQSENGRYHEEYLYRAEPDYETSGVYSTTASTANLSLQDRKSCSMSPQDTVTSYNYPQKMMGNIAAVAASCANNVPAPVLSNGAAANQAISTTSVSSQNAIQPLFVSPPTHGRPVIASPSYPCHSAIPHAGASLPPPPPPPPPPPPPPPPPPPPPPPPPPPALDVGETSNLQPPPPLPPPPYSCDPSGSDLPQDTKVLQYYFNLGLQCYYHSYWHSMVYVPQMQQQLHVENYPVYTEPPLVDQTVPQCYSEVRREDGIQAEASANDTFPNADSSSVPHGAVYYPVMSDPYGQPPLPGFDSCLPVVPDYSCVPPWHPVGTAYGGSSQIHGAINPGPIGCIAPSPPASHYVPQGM
UniProt P12429: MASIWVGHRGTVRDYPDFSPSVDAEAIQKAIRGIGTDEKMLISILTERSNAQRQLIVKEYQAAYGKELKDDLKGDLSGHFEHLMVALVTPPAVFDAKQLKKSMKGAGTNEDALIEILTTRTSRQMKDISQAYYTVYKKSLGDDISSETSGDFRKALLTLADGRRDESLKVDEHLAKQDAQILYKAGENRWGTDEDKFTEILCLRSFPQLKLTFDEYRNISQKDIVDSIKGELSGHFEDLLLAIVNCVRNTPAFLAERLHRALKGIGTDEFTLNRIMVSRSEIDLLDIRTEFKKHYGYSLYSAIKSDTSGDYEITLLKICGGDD

Assays:
Test in all cases: log2 fold change, soluble protein after heating vs DMSO (PISA); higher = thermal stabilisation; K562 lysate, 10 uM; active = over 0.2 and 3.5 SD of the protein, either way, in both replicates (recomputed)
[1] = compound: C1=CC=C(C=C1)[C@H](COC2=CC3=C(C=C2)NC(=O)N3)NC(=O)C4=CC=CN(C4=O)CC5=CC(=C(C=C5)F)F
Procedure, shortened: (§1)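 Thermal stability, expressed as log-two fold change relative to solvent controls, is given from duplicates. Crude K562 extract in PBS pH 7.4 with 1 mM MgCl2, at 1 mg/mL protein, was treated with 10 μM compound for 30 min and heated in aliquots for 3 min across 48°C-58°C. After pooling, adjustment to 0.5% NP-40 at 4°C and centrifugation at 21,000xg for 90 min, supernatant protein was measured by TMTpro 16plex LC-MS/MS with channel sums equalised.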

[2] = compound: CC1=C(SC2=C1C(=N[C@H](C3=NN=C(N32)C)CC(=O)N)C4=CC=C(C=C4)Cl)C
Procedure, shortened: as §1

[3] = compound: CC1=C2C(=CC=C1)N=C(N(C2=O)C3=CC=CC=C3C)CN4C=NC5=C(N=CN=C54)N
Procedure, shortened: as §1

[4] = compound: Cc1sc2c(c1C)C(c1ccc(Cl)cc1)=N[C@@H](CC(=O)OC(C)(C)C)c1nnc(C)n1-2
Procedure, shortened: as §1

[5] = compound: c1ccc([C@@H]2C[C@H]2NC2CCNCC2)cc1
Procedure, shortened: as §1

Measured: log2 fold change

ANAPC1 (UniProt Q9H1A4)
inactive: [1] -0.034 | [2] 0.023 | [3] 0.073 | [4] 0.012 | [5] 0.003

ANP32B (UniProt Q92688)
inactive: [1] -0.013 | [2] 0.014 | [3] -0.002 | [4] -0.015 | [5] -0.025

ANKRD10 (UniProt Q9NXR5)
inactive: [1] -0.131 | [2] -0.027 | [3] 0.025 | [4] 0.06 | [5] -0.019

ANKRD52 (UniProt Q8NB46)
inactive: [1] -0.004 | [2] -0.036 | [3] 0.056 | [4] 0.055 | [5] 0.004

ANK1 isoform 14 (UniProt P16157)
inactive: [1] -0.026 | [2] 0.039 | [3] 0.031 | [4] 0.012 | [5] 0.058

ANKHD1 isoform 6 (UniProt Q8IWZ3)
inactive: [1] -0.048 | [2] -0.006 | [3] 0.019 | [4] 0.023 | [5] -0.097

ALYREF (UniProt Q86V81)
inactive: [1] -0.022 | [2] -0.001 | [3] -0.04 | [4] -0.048 | [5] 0.079

ANXA5 (UniProt P08758)
inactive: [1] 0.031 | [2] 0.016 | [3] 0.013 | [4] 0.033 | [5] 0.075

ANP32E isoform 3 (UniProt Q9BTT0)
inactive: [1] 0.003 | [2] 0.09 | [3] 0.015 | [5] -0.39

Two neighbouring records out of the list so far, quoted:
ALYREF (UniProt Q86V81)
inactive: [1] -0.022 | [2] -0.001 | [3] -0.04 | [4] -0.048 | [5] 0.079

ANXA5 (UniProt P08758)
inactive: [1] 0.031 | [2] 0.016 | [3] 0.013 | [4] 0.033 | [5] 0.075

Further records follow.

AP1S3 isoform 4 (UniProt Q96PC3)
inactive: [1] 0.118 | [2] -0.043 | [4] -0.054 | [5] -0.044

ALG13 (UniProt Q9NP73)
inactive: [1] -0.015 | [2] -0.018 | [3] 0.09 | [4] 0.037 | [5] -0.087

ANXA3 (UniProt P12429)
inactive: [1] 0.018 | [2] -0.003 | [3] 0.036 | [4] 0.003 | [5] 0.006
